{"source": "PubChem BioAssay (EPA / NIEHS)", "note": "Inconclusive results, whose numbers are uncertain, are shown with a selection of clear calls. Where the call is inconclusive, the potency comes from a doubtful curve fit. Activity calls are given as the source filed them. How the source made its calls: active means hit-call score of the fitted dose curve at least 0.9, where 1 is the maximum; inconclusive means response in the unintended direction; inactive means score below 0.9."}
{"test": "Tanguay_ZF_120hpf_AXIS_legacy: (Legacy) Oregon State University Tanguay Lab 120 Hour Post-fertilization zebrafish Assay for Body Axis Malformation (AID 2283635);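 on AC50: potency for an increased fraction of larvae scored with body axis malformation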", "outline": "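Embryos: 5D wild-type, pronase-dechorionated 4 hpf; static exposure 6–120 hpf, 28C, sealed, dark, 1 embryo/well, 0.64% DMSO. 120 hpf axis malformation scored present/absent; dead embryos excluded. Analysed as gain of signal vs DMSO.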"}
{"smiles": "COc1ccc(C)cc1N", "outcome": "inactive"}
{"smiles": "Nc1nc(Cl)nc2c1ncn2[C@H]1C[C@H](O)[C@@H](CO)O1", "outcome": "inactive"}
{"smiles": "Cc1cccc(Nc2cc(Cl)nc(SCC(=O)O)n2)c1C", "AC50": "inconclusive: 183 µM"}
{"test": "Tanguay_ZF_120hpf_EYE_legacy: (Legacy) Oregon State University Tanguay Lab 120 Hour Post-fertilization zebrafish Assay for Eye Malformation (AID 2283636);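 further: binary presence or absence of eye malformation scored by brightfield in 120 hpf larvae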", "outline": "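Binary brightfield scoring of eye defects at 120 hpf after static exposure from 6 hpf of single pronase-dechorionated wild-type embryos (28C, 0.64% DMSO). Non-mortality endpoints omitted where embryos died; fit vs DMSO.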"}
{"smiles": "COc1ccc(C)cc1N", "AC50": "inconclusive: 0.652 µM"}
{"smiles": "O=C1CCC(N2C(=O)c3ccccc3C2=O)C(=O)N1", "note": "(stereo unspecified)", "AC50": "inconclusive: 133 µM"}
{"smiles": "CCCCCCC(=O)O", "AC50": "inconclusive: 1.9 µM"}
